This is one part of the list. Only hits are listed; about a third recur on repeated control peptides.
Tests used:
Assay in all cases: PRISMA enrichment of interactor (LFQ) in peptide spot vs all other peptide spots (log2 fold change); higher = stronger / more specific binding of the interactor to the peptide
[1] = molecular target: ACAT1, P24752
Procedure: (§1)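 PRISMA: 15-aa overlapping tiles (offset 8 aa) of 60 microproteins, plus SOS1/GLUT1 control peptides, were spot-synthesized on cellulose membranes in triplicate. Membranes were incubated with benzonase-treated HEK293T lysate, and bound proteins were identified by LC-MS/MS with LFQ. Enrichment is the log2 fold change of each protein in one spot versus all other spots. Only interactors passing the significance cutoff are listed.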

Sequences of proteins named here, by UniProt entry; tags and fusion partners are left off.
ACTN4, O43707, UniProt O43707, whole entry: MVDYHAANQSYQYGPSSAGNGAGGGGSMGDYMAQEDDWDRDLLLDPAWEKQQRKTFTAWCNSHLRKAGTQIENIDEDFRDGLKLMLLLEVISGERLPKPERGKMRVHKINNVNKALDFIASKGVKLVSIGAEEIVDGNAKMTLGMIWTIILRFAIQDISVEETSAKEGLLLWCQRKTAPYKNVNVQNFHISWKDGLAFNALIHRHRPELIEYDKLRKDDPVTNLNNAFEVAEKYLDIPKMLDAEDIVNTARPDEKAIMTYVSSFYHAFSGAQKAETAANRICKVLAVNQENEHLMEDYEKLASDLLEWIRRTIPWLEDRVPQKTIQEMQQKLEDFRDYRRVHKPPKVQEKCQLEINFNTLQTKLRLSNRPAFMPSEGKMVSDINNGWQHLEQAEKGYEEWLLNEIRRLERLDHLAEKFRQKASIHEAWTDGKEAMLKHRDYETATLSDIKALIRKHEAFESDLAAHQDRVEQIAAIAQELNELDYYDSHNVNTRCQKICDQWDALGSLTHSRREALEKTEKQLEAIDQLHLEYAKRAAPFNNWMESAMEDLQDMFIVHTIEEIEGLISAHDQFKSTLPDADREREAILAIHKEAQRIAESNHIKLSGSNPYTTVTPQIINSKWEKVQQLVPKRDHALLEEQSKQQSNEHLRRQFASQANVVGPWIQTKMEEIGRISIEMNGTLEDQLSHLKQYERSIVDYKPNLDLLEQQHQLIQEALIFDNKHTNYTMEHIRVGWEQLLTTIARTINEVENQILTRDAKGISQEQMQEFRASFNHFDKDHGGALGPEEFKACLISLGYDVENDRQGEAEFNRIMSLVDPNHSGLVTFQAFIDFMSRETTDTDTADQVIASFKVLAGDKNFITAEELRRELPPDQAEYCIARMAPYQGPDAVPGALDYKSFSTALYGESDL
CDC23, Q9UJX2, UniProt Q9UJX2, whole entry: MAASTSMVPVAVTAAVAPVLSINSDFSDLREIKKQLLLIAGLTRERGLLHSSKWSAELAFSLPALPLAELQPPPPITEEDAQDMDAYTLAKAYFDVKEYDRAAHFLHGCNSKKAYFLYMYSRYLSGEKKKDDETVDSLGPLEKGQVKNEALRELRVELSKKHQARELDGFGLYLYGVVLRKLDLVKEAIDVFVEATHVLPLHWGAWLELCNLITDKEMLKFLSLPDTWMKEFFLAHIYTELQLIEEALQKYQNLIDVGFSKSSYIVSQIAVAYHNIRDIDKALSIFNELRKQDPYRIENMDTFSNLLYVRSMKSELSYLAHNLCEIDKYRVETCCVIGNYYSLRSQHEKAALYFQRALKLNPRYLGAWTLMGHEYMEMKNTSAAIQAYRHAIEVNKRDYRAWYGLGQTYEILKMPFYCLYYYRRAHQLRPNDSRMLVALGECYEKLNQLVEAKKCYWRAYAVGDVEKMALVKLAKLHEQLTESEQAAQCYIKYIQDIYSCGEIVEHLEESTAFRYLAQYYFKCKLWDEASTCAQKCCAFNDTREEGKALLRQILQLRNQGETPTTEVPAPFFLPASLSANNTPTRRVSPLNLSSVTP
DYNLRB1, Q9NP97, UniProt Q9NP97, whole entry: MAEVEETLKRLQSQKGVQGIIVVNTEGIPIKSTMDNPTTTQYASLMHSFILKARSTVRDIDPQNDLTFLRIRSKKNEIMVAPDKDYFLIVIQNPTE
MCM2, P49736, UniProt P49736, whole entry: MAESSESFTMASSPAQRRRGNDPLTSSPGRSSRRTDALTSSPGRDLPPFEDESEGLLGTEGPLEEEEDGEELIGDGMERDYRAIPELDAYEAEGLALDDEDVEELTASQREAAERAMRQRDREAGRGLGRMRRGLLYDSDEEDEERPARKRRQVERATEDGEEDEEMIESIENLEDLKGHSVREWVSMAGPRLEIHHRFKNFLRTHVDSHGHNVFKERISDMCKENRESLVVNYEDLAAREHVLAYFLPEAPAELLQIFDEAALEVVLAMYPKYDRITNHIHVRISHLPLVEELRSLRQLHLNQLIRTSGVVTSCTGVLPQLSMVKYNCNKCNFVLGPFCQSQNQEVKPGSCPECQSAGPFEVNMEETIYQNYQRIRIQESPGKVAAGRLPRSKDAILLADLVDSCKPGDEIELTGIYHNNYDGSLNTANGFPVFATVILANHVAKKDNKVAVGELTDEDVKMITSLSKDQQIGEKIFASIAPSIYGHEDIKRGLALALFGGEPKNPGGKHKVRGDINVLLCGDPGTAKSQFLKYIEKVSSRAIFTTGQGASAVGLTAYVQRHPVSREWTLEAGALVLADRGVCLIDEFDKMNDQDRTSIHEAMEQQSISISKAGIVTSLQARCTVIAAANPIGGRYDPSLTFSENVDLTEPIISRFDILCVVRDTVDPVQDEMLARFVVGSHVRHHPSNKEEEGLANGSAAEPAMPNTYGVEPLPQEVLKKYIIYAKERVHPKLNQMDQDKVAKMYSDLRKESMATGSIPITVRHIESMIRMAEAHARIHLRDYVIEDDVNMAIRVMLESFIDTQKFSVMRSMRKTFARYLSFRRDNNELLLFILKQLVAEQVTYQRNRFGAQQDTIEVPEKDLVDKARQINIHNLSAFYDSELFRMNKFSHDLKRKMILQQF
MTHFD1, P11586, UniProt P11586, whole entry: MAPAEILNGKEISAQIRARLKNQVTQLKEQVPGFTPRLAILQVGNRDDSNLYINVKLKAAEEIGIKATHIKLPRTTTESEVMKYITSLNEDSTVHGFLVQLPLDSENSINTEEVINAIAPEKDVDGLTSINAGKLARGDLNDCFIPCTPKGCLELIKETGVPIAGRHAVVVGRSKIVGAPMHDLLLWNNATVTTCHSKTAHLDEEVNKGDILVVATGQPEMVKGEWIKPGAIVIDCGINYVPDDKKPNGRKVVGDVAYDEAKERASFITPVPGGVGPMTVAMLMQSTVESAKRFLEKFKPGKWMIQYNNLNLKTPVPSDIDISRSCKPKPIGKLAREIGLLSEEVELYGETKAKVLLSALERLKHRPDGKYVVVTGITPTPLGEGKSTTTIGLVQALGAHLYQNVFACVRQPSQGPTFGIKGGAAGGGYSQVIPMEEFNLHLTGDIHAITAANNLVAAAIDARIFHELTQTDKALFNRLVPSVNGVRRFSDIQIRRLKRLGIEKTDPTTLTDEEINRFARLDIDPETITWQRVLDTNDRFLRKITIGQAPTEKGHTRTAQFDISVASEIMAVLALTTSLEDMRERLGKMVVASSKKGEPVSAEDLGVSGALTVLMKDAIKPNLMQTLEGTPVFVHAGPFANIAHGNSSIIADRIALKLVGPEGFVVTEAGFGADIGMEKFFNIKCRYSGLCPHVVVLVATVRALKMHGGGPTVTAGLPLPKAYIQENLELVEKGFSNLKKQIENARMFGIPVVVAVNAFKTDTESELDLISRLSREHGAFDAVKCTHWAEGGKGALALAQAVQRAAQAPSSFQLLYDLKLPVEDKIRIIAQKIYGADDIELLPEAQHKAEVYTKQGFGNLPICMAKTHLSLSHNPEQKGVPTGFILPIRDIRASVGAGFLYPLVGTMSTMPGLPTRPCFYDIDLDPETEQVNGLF
SERPINA1, P01009, UniProt P01009, whole entry: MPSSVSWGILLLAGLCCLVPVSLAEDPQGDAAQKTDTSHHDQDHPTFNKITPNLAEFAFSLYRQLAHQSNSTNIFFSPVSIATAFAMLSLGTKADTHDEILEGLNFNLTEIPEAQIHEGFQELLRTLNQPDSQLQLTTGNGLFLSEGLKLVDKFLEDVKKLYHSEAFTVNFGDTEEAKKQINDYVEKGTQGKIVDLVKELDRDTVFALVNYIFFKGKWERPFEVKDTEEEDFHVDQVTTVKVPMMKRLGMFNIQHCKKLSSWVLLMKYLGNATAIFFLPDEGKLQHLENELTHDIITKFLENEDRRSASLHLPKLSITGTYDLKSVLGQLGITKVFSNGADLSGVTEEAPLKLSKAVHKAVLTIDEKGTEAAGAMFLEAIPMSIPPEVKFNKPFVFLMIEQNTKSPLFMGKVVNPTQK
DLD, P09622, UniProt P09622, whole entry: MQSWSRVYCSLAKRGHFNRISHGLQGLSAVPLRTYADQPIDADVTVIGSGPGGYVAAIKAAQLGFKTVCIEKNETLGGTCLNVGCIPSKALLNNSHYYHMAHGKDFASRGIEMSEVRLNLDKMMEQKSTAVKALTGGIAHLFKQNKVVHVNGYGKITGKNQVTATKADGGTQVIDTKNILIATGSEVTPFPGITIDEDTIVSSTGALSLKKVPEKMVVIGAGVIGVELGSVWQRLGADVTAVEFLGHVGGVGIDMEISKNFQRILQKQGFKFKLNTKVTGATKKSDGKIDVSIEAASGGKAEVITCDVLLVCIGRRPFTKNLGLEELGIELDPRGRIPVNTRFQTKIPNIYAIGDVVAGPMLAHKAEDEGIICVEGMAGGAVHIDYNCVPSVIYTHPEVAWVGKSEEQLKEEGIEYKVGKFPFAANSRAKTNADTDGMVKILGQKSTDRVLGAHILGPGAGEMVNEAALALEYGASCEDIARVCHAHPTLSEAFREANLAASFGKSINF
KHDRBS1, Q07666, UniProt Q07666, whole entry: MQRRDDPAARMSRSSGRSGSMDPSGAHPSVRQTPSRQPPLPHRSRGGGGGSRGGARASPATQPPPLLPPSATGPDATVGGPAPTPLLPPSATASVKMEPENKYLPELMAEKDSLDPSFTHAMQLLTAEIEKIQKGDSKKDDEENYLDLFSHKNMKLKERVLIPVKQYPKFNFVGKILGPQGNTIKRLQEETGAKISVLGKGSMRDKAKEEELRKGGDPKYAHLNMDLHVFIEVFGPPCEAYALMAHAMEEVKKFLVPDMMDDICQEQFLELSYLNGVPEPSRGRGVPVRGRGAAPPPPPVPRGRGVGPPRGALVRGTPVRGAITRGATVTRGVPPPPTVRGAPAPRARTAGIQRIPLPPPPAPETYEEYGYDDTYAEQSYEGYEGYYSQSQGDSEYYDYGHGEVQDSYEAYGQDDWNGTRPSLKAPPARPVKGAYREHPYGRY
POLR1C, O15160, UniProt O15160, whole entry: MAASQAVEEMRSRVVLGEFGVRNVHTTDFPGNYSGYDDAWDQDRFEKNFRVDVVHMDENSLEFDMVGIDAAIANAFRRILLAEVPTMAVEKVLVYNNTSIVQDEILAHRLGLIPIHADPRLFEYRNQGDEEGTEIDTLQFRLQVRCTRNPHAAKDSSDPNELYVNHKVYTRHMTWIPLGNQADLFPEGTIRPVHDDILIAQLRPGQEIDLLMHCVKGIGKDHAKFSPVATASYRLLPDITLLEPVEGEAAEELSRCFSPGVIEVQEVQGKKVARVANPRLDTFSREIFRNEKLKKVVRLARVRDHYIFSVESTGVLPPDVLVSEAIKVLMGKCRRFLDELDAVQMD

[2] = molecular target: ACTN4, O43707
Procedure: as §1

[3] = molecular target: ANP32B, Q92688
Procedure: as §1

[4] = molecular target: CAPZA1, P52907
Procedure: as §1

[5] = molecular target: CDC23, Q9UJX2
Procedure: as §1

[6] = molecular target: CLPTM1, O96005
Procedure: as §1

[7] = molecular target: COPS7B, Q9H9Q2
Procedure: as §1

[8] = molecular target: DNAAF5, Q86Y56
Procedure: as §1

[9] = molecular target: DYNLRB1, Q9NP97
Procedure: as §1

[10] = molecular target: EARS2, Q5JPH6
Procedure: as §1

[11] = molecular target: EXOC6, Q8TAG9
Procedure: as §1

[12] = molecular target: FAM3C, Q92520
Procedure: as §1

[13] = molecular target: FLOT1, O75955
Procedure: as §1

[14] = molecular target: GRSF1, Q12849
Procedure: as §1

[15] = molecular target: HUWE1, Q7Z6Z7
Procedure: as §1

[16] = molecular target: ITPA, Q9BY32
Procedure: as §1

[17] = molecular target: MCM2, P49736
Procedure: as §1

[18] = molecular target: MCM6, Q14566
Procedure: as §1

[19] = molecular target: MTHFD1, P11586
Procedure: as §1

[20] = molecular target: NAT10, Q9H0A0
Procedure: as §1

[21] = molecular target: NOP2, P46087
Procedure: as §1

[22] = molecular target: NTMT1, Q9BV86
Procedure: as §1

[23] = molecular target: PRPF38A, Q8NAV1
Procedure: as §1

[24] = molecular target: PSMB1, P20618
Procedure: as §1

[25] = molecular target: PSMD12, O00232
Procedure: as §1

[26] = molecular target: SERPINA1, P01009
Procedure: as §1

[27] = molecular target: SLC25A11, Q02978
Procedure: as §1

[28] = molecular target: TCOF1, Q13428
Procedure: as §1

[29] = molecular target: TRIP4, Q15650
Procedure: as §1

[30] = molecular target: WTAP, Q15007
Procedure: as §1

[31] = molecular target: ASMTL, O95671
Procedure: as §1

[32] = molecular target: CCDC58, Q4VC31
Procedure: as §1

[33] = molecular target: CDK2, P24941
Procedure: as §1

[34] = molecular target: DLD, P09622
Procedure: as §1

[35] = molecular target: FAM50B, Q9Y247
Procedure: as §1

[36] = molecular target: GMPS, P49915
Procedure: as §1

[37] = substrate: INIP, Q9NRY2
Procedure: as §1

[38] = molecular target: KHDRBS1, Q07666
Procedure: as §1

[39] = molecular target: MRPL48, Q96GC5
Procedure: as §1

[40] = molecular target: MRPS5, P82675
Procedure: as §1

[41] = molecular target: MRTO4, Q9UKD2
Procedure: as §1

[42] = molecular target: NKAP, Q8N5F7
Procedure: as §1

[43] = molecular target: PAWR, Q96IZ0
Procedure: as §1

[44] = molecular target: PGRMC1, O00264
Procedure: as §1

[45] = molecular target: POGZ, Q7Z3K3
Procedure: as §1

[46] = molecular target: POLR1C, O15160
Procedure: as §1

[47] = molecular target: VPS36, Q86VN1
Procedure: as §1

[48] = molecular target: ZNF22, P17026
Procedure: as §1

LPTIEKRRDSMRLEM [CTD-2366F13.1]
PRISMA enrichment of interactor (log2) [1]: 5.24 | PRISMA enrichment of interactor (log2) [2]: 6.31 | PRISMA enrichment of interactor (log2) [3]: 6.56 | PRISMA enrichment of interactor (log2) [4]: 5.39 | PRISMA enrichment of interactor (log2) [5]: 6.97 | PRISMA enrichment of interactor (log2) [6]: 4.3 | PRISMA enrichment of interactor (log2) [7]: 7.24 | PRISMA enrichment of interactor (log2) [8]: 4.32 | PRISMA enrichment of interactor (log2) [9]: 5.37 | PRISMA enrichment of interactor (log2) [10]: 6.02 | PRISMA enrichment of interactor (log2) [11]: 4.99 | PRISMA enrichment of interactor (log2) [12]: 4.75 | PRISMA enrichment of interactor (log2) [13]: 4.45 | PRISMA enrichment of interactor (log2) [14]: 4.65 | PRISMA enrichment of interactor (log2) [15]: 6.91 | PRISMA enrichment of interactor (log2) [16]: 5.72 | PRISMA enrichment of interactor (log2) [17]: 6.12 | PRISMA enrichment of interactor (log2) [18]: 6.03 | PRISMA enrichment of interactor (log2) [19]: 5.25 | PRISMA enrichment of interactor (log2) [20]: 6.08 | PRISMA enrichment of interactor (log2) [21]: 5.15 | PRISMA enrichment of interactor (log2) [22]: 4.44 | PRISMA enrichment of interactor (log2) [23]: 6.52 | PRISMA enrichment of interactor (log2) [24]: 8.34 | PRISMA enrichment of interactor (log2) [25]: 5.58 | PRISMA enrichment of interactor (log2) [26]: 6.51 | PRISMA enrichment of interactor (log2) [27]: 4.55 | PRISMA enrichment of interactor (log2) [28]: 5.56 | PRISMA enrichment of interactor (log2) [29]: 4.58 | PRISMA enrichment of interactor (log2) [30]: 7.6

NSSHWHTGIRQKAGS [GAS5]
PRISMA enrichment of interactor (log2) [1]: 5.38 | PRISMA enrichment of interactor (log2) [31]: 4.69 | PRISMA enrichment of interactor (log2) [32]: 4.41 | PRISMA enrichment of interactor (log2) [33]: 4.61 | PRISMA enrichment of interactor (log2) [34]: 4.11 | PRISMA enrichment of interactor (log2) [35]: 6.63 | PRISMA enrichment of interactor (log2) [36]: 6.74 | PRISMA enrichment of interactor (log2) [37]: 5.3 | PRISMA enrichment of interactor (log2) [38]: 5.88 | PRISMA enrichment of interactor (log2) [39]: 4.35 | PRISMA enrichment of interactor (log2) [40]: 5.98 | PRISMA enrichment of interactor (log2) [41]: 5.57 | PRISMA enrichment of interactor (log2) [42]: 4.95 | PRISMA enrichment of interactor (log2) [43]: 4.14 | PRISMA enrichment of interactor (log2) [44]: 5.68 | PRISMA enrichment of interactor (log2) [45]: 4.35 | PRISMA enrichment of interactor (log2) [46]: 5.84 | PRISMA enrichment of interactor (log2) [47]: 4.04 | PRISMA enrichment of interactor (log2) [48]: 5.45

— the supplement of paper PMC10032668
